These are yes or no findings as the source states them, for the method shown. In cells and extracts the contact can be indirect. Some binding calls cover weakened binding; strength is not graded here. Where a sequence is shown, tags or fusion partners need not be part of it.
T1: LZTR1 WT (leucine-zipper-like posttranslational regulator 1), in vitro translated, FLAG-tagged (human) (UniProt Q8N653)
T1 sequence: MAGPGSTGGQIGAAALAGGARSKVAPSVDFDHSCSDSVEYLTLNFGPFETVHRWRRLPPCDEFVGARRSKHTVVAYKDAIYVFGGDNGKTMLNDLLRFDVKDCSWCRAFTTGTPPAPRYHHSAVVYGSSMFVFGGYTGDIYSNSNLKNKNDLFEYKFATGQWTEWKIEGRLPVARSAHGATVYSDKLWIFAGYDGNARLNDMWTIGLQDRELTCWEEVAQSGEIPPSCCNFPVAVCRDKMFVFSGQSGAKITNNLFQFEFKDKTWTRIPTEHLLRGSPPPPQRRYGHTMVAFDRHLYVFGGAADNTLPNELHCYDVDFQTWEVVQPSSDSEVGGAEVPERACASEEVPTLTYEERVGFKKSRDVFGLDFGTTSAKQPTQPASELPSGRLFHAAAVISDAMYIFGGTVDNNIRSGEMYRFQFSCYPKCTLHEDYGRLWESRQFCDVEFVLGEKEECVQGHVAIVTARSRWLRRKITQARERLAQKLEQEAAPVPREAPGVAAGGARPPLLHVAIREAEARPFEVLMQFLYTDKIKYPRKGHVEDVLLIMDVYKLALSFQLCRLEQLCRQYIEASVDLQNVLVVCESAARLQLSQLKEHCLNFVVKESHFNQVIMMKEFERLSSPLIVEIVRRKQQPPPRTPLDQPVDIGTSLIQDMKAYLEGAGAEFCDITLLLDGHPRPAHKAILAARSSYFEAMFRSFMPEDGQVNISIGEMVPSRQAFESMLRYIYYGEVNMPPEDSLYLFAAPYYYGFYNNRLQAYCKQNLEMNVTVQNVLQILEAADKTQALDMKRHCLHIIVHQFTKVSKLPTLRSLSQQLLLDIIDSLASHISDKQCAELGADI

Sequences of proteins named here, by UniProt entry; tags and fusion partners are left off.
UniProt Q92963: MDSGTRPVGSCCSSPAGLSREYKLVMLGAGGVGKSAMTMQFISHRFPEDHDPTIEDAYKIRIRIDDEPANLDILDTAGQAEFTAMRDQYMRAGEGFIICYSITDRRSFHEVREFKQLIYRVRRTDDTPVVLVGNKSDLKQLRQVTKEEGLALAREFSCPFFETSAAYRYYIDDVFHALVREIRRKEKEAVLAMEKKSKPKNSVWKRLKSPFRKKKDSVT

T2: FLAG-LZTR1 p.G248R, in vitro translated (human) (UniProt Q8N653)
T2 sequence: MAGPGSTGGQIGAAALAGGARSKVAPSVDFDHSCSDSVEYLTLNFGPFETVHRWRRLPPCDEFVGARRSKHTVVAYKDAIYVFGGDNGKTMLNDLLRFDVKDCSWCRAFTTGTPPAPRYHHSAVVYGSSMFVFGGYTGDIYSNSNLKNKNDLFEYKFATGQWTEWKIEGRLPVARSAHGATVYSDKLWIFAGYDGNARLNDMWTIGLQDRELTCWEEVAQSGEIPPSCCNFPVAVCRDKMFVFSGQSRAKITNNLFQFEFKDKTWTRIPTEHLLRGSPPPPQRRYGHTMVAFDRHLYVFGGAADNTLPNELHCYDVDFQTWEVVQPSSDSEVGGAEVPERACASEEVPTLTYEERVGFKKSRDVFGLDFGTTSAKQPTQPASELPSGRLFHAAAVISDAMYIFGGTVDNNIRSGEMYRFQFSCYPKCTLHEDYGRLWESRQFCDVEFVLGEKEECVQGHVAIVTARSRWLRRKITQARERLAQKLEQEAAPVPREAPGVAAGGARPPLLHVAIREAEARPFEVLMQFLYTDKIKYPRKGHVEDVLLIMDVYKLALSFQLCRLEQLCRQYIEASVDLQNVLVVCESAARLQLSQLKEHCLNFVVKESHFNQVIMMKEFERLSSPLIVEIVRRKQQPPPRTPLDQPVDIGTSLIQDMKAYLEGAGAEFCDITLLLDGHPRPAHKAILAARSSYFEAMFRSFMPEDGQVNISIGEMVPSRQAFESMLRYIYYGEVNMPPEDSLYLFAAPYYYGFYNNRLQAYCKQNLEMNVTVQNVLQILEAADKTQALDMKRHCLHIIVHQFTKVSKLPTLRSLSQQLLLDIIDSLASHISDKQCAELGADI

T3: LZTR1 WT (leucine-zipper-like posttranslational regulator 1), in vitro translated, FLAG-tagged (human), Q8N653
T3 chain: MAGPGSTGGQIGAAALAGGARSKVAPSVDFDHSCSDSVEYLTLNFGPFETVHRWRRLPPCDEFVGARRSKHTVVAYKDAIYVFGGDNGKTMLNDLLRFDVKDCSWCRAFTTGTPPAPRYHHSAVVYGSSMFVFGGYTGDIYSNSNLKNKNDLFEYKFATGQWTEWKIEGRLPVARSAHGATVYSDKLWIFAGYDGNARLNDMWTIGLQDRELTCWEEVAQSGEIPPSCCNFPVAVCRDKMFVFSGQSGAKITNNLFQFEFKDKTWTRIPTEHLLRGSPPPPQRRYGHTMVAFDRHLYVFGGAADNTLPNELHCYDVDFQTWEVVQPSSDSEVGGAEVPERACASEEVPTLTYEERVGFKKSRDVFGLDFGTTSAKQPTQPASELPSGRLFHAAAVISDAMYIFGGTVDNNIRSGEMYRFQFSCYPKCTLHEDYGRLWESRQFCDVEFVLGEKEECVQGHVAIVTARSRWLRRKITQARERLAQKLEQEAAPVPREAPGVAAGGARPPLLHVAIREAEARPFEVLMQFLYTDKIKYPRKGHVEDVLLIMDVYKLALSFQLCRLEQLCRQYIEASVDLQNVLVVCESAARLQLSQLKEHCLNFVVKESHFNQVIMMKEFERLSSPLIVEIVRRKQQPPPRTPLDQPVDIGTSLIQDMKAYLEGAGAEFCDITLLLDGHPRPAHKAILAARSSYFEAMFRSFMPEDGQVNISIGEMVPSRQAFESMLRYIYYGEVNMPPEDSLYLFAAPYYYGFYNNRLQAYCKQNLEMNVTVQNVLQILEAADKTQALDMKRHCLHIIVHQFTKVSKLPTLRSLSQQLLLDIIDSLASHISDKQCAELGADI


Experiments:
[1] = biological target: T1, LZTR1 WT (leucine-zipper-like posttranslational regulator 1), in vitro translated, FLAG-tagged (human); assay: co-IP; in vitro translated FLAG-LZTR1 WT or mutants incubated with HEK293-KO (LZTR1-KO) whole-cell lysate and FLAG-M2 magnetic beads for 12 hours; immunoblot for endogenous RAS subfamily proteins
[2] = biological target: T2, FLAG-LZTR1 p.G248R, in vitro translated (human); assay: as above
[3] = biological target: T3, LZTR1 WT (leucine-zipper-like …); assay: co-IP; in vitro translated FLAG-, MYC- and HA-tagged LZTR1 proteins mixed at the indicated protein ratios and incubated with FLAG-M2 magnetic beads for 6 hours; immunoblot; details: remark: other sources report otherwise

Row | binding [1] | binding [2] | binding [3] | Molecule
1 | binds | no binding | – | RIT1 (Ras-like without CAAX 1), endogenous (from UniProt Q92963 1-219)
2 | – | – | binds | LZTR1 WT (leucine-zipper-like posttranslational regulator 1), in vitro translated, FLAG-tagged, Q8N653 1-840 (protein) MAGPGSTGGQIGAAALAGGARSKVAPSVDFDHSCSDSVEYLTLNFGPFETVHRWRRLPPCDEFVGARRSKHTVVAYKDAIYVFGGDNGKTMLNDLLRFDVKDCSWCRAFTTGTPPAPRYHHSAVVYGSSMFVFGGYTGDIYSNSNLKNKNDLFEYKFATGQWTEWKIEGRLPVARSAHGATVYSDKLWIFAGYDGNARLNDMWTIGLQDRELTCWEEVAQSGEIPPSCCNFPVAVCRDKMFVFSGQSGAKITNNLFQFEFKDKTWTRIPTEHLLRGSPPPPQRRYGHTMVAFDRHLYVFGGAADNTLPNELHCYDVDFQTWEVVQPSSDSEVGGAEVPERACASEEVPTLTYEERVGFKKSRDVFGLDFGTTSAKQPTQPASELPSGRLFHAAAVISDAMYIFGGTVDNNIRSGEMYRFQFSCYPKCTLHEDYGRLWESRQFCDVEFVLGEKEECVQGHVAIVTARSRWLRRKITQARERLAQKLEQEAAPVPREAPGVAAGGARPPLLHVAIREAEARPFEVLMQFLYTDKIKYPRKGHVEDVLLIMDVYKLALSFQLCRLEQLCRQYIEASVDLQNVLVVCESAARLQLSQLKEHCLNFVVKESHFNQVIMMKEFERLSSPLIVEIVRRKQQPPPRTPLDQPVDIGTSLIQDMKAYLEGAGAEFCDITLLLDGHPRPAHKAILAARSSYFEAMFRSFMPEDGQVNISIGEMVPSRQAFESMLRYIYYGEVNMPPEDSLYLFAAPYYYGFYNNRLQAYCKQNLEMNVTVQNVLQILEAADKTQALDMKRHCLHIIVHQFTKVSKLPTLRSLSQQLLLDIIDSLASHISDKQCAELGADI

— publication PMC11601938
